The data set is described as follows: Sensory evaluation of bitter taste masking effect. Conditions: 0.1 ml of 0.5% (5000 ppm) solution in water on the tongue. The data set is classed as in vivo. As for the experimental part: Since leucine has a unique bitter taste, Glc-Leu was examined by sensory evaluation for its bitter taste masking effect. Three test subjects A, B, C took 0.1 ml of a solution of food additive leucine dissolved in water at a concentration of 0.5% (5000 ppm) with a micropipette, dropped the solution on the tongue, and spit it out to confirm the level of the bitter taste of leucine. Sequentially, the three test subjects A, B, C took 0.1 ml of a solution of Glc-Leu dissolved in water at a concentration of 0.5% (5000 ppm) with a micropipette, dropped the solution on the tongue, and spit it out to compare the level of the bitter taste with that of leucine confirmed earlier.

For `CC(C)C[C@H](NC(=O)OC1O[C@H](CO)[C@@H](O)[C@H](O)[C@H]1O)C(=O)O` (stereo partly drawn) [Glc-Leu, N-(α/β-D-glucopyranosyloxycarbonyl)-L-leucine], the “bitter taste compared with leucine, all three test subjects” value is “none of the test subjects felt the bitter taste”.

The values are drawn from US10787476B2, “Glycoamino acid and use thereof” (AJINOMOTO CO., INC., priority 2013, dated 2020).
